Earlier results, collected in patent publication US20240139191A1, “SMALL MOLECULES AS LARP1 LIGANDS” (priority 2020, published 2024).
At least one compound was matched to its structure with a doubt left.

Tested on: MERS
Conditions: cited from earlier work

## CO[C@H]1C[C@@H]2CC[C@@H](C)[C@@](O)(O2)C(=O)C(=O)N2CCCC[C@H]2C(=O)O[C@H]([C@H](C)C[C@@H]2CC[C@@H](O)[C@H](OC)C2)CC(=O)[C@H](C)/C=C(\C)[C@@H](O)[C@@H](OC)C(=O)[C@H](C)C[C@H](C)/C=C/C=C/C=C/1C [rapamycin]
  decrease of MERS infections: 60%
